Source: article PMC12040169 (PLOS Biology, 2025)
This is one part of the list.

test system: T1, CTL2-GFP (C. trachomatis L2/434/Bu, GFP-expressing); design: species or system HeLa; Intracellular C. trachomatis growth in HeLa cells, bulk GFP fluorescence relative to DMSO; conditions: bulk GFP, single well; 28.5 h, 10 µM; inhibitor
T1 construct: L2/434/Bu, GFP-expressing

| Compound | % of control remaining [%] |
| --- | --- |
| COCCN1C(=O)C2(CC(=O)N(CCNS(C)(=O)=O)C2=O)c2cc(C)ccc21 (stereo not drawn) [CBK075479] | 104.202 |
| COc1ccc(CNC(=O)C[C@@H]2[C@H](O)CCC3[C@]4(C)CO[C@@H](CN)O[C@@H]4CC[C@]32C)cc1 (stereo partly drawn) [CBK289575] | 138.869 |
| CN(C)CCCNc1ccc(C(F)(F)F)cn1 [CBK269414] | 155.42 |
| CN1C[C@@H](NC(=O)Nc2ccccc2)C[C@H]1c1nc(-c2ccccc2)no1 [CBK288877] | 94.3731 |
| COc1ccc(C2(CN3CCC(NC(C)=O)CC3)CCCC2)cc1 [CBK283241] | 135.202 |
| COc1ccc(-c2cc(=O)n3cc[nH]c3n2)cc1 [CBK006659] | 112.676 |
| CC(C)(C)OC(=O)N1Cc2ccccc2C[C@H]1C(=O)N1CCC(C(=O)O)CC1 [CBK286761] | 117.408 |
| CN1CCN(c2ccc(C(=O)NC3CCCC3)cc2)CC1 [CBK200119] | 149.58 |
| Cc1ccccc1OCc1nc(C#N)c(NCc2ccc3c(c2)OCO3)o1 [CBK073372] | 112.4 |
| COc1ccc(C(=O)[C@@H]2CCCC[C@H]2N)cc1 [CBK023040C] | 158.427 |
| CC(=O)Nc1ccc(-c2cccc(COC3CCN(C(=O)Cc4c[nH]cn4)CC3)c2)cc1 [CBK149497] | 124.667 |
| CC(=O)Nc1ccc(S(=O)(=O)Nc2ccc(CC#N)cc2)cc1Cl [CBK044058] | 96.4036 |
| O=C(Cn1nc(C(=O)O)c2ccccc2c1=O)c1ccc(S(=O)(=O)N2CCOCC2)cc1 [CBK296939] | 134.667 |
| CN(Cc1ccccc1)Cc1ccccc1O [CBK261879] | 107.886 |
| COc1ccc(Cl)cc1NC(=O)CSc1nc2cc3ccccc3cc2[nH]1 [CBK268410] | 67.3936 |
| Cc1cc(NC(=O)CN(C)c2ncccc2C#N)no1 [CBK304182] | 134.265 |
| Cc1ccc(C2C(C(=O)c3ccccc3)=C(O)C(=O)N2CCC(=O)O)cc1 (stereo not drawn) [CBK286642] | 122.115 |
| CCN(CC)C(=O)c1[nH]c2ccccc2c1NS(=O)(=O)Cc1ccccc1 [CBK050107] | 85.326 |
| COc1cc(/C=C2/C(=O)N(c3ccc(Cl)c(C(=O)O)c3)N=C2C)ccc1Oc1nc2c(c(=O)n(C)c(=O)n2C)n1C [CBK262962] | 109.353 |
| COc1ccnc(N2CCN(C(=O)c3cnn(C)c3)CC2)n1 [CBK306125] | 114.823 |
| O=C(O)c1ccc(N2C(=O)CC(N3CCN(Cc4ccccc4)CC3)C2=O)cc1 (stereo not drawn) [CBK261403] | 102.677 |

4 of these compounds in a different format.
Compound | % of control remaining [%]
COc1ccc(CNC(=O)C[C@@H]2[C@H](O)CCC3[C@]4(C)CO[C@@H](CN)O[C@@H]4CC[C@]32C)cc1 (stereo partly drawn) [CBK289575] | 138.869
O=C(Cn1nc(C(=O)O)c2ccccc2c1=O)c1ccc(S(=O)(=O)N2CCOCC2)cc1 [CBK296939] | 134.667
CN(Cc1ccccc1)Cc1ccccc1O [CBK261879] | 107.886
Cc1ccc(C2C(C(=O)c3ccccc3)=C(O)C(=O)N2CCC(=O)O)cc1 (stereo not drawn) [CBK286642] | 122.115
